In patent US4562068A, “Sebosuppressive cosmetic preparations containing aryloxobutenoic acid derivatives” (Henkel Kommanditgesellschaft auf Aktien, priority 1982, dated 1985):
The name of at least one read-out is uncertain. Some compounds share one wording; it may come from a single statement.

Tested on: brown cutaneous surface lipid of the rats
Assay: Testing for anti-seborrheic activity: brown discoloration (brown cutaneous surface lipid) on shaved backs of male Wistar rats after topical application
Type: in vivo
Conditions: topical on one side of back fur, 9 applications in 14 days, 6 male Wistar rats; for Evaluation Method 2 (difference in points between right and left sides): treated vs solvent side; for Evaluation Method 3 (difference in intensity of brown shades, points): vs untreated control animals
Description: The anti-seborrheic activity of aryloxobutenoic acid derivatives was examined closely in the animal experiments described hereinafter. The experimental animals were male Wistar rats weighing from 220 to 230 gm. A degree of brown discoloration on the shaved backs of the rats was established visually; the brown discoloration was caused by the brown cutaneous surface lipid of the rats. This test is based upon the observation that young female rats as well as male rats that were washed with tenside solution and a lipid solvent, respectively, as well as male rats that were treated systematically with estrogen, show only the normal light-colored pink skin after shaving; parallel to this, only relatively very small amounts of lipid can be extracted from the shorn hair.
For evaluation of anti-seborrheic activity, the test substances set forth in the table below, each in solution in ethanol, were each brushed on one side of the back fur of six rats. The other side was treated only with the solvent without the active substance (control side). During the testing period of 14 days, application of test substance was made once a day on a total of 9 days. A group of 6 rats that remained completely untreated served as an additional control. At the end of the testing, the animals were shaved on the back and the flanks and inspected visually, this inspection being done independently by an evaluation panel (6 persons) under doubleblind conditions.
Three criteria were rated. The first criterion was whether the majority of the evaluators recognized the treated side properly. The differentiations were as follows:
The second criterion was the difference between the right and left sides, one point each to be given per evaluator and animal, in the manner that the darker side was rated 1, the lighter side was rated 0, and uniformity of both sides were rated 0.5.
Significant differences between the untreated and the treated side according to the second method of evaluation indicate the topical effectiveness of a substance.
The third criterion was the rating of the difference in intensity of the brown shades according to the following scale:
According to the third method of evaluation, the differences in the point totals between the untreated control animals and the treated and untreated sides, respectively, of the experimental animal group were calculated where significant differences between control animals and the treated side of the experimental animals indicate the effect of a substance. Similarly, a distinct difference between the untreated and the treated sides of the experimental animal groups is also generally noticeable. However, this is not always as distinct as that between control animals and treated sides, which may be due to various reasons, as, for example, mechanical transfer of substance from one side to the other or solvent influence.
The differentiation of the effects according to the methods of evaluation 2 and 3 was characterized in the following manner:
In addition, the percentage of sebum reduction was calculated by dividing the point difference (ΔP) by the number of points for the control group (Pk) and multiplying by 100%, as follows: […]

Structure (SMILES) | Evaluation Method 2 (difference in points between right and left sides) (0.1% in ethanol) | Evaluation Method 3 (difference in intensity of brown shades, points) (0.1% in ethanol) | further results
CCOC(=O)C=CC(=O)c1ccc(Cl)cc1 [Example 1, 4-(4'-Chloro-phenyl)-4-oxo-but-2-enoic acid ethyl ester] |  |  | Evaluation Method 2 (difference in points between right and left sides) (0.25% in ethanol): ++ (very great (>99.9 probability)); Evaluation Method 3 (difference in intensity of brown shades, points) (0.25% in ethanol): ++ (very great (>99.9 probability))
CCOC(=O)C=CC(=O)c1ccccc1 [Example 2, 4-Phenyl-4-oxo-but-2-enoic ethyl ester] | ++ (very great (>99.9 probability)) | ++ (very great (>99.9 probability)) | 
CC(C)OC(=O)C=CC(=O)c1ccccc1 [Example 3, 4-Phenyl-4-oxo-but-2-enoic isopropyl ester] | ++ (very great (>99.9 probability)) | ++ (very great (>99.9 probability)) | 
CCCCOC(=O)C=CC(=O)c1ccccc1 [Example 4, 4-Phenyl-4-oxo-but-2-enoic acid butyl ester] | ++ (very great (>99.9 probability)) | ++ (very great (>99.9 probability)) | 
CCOC(=O)C=CC(=O)c1ccc(OC)c(OC)c1 [Example 5, 4-(3',4'-Dimethoxy-phenyl)-4-oxo-but-2-enoic acid ethyl ester] | ++ (very great (>99.9 probability)) | ++ (very great (>99.9 probability)) | 
CCCCOc1ccc(C(=O)C=CC(=O)OCC)cc1 [Example 6, 4-(4'-Butoxy-phenyl)-4-oxo-but-2-enoic acid ethyl ester] |  |  | Evaluation Method 2 (difference in points between right and left sides) (0.5% in ethanol): ++ (very great (>99.9 probability)); Evaluation Method 3 (difference in intensity of brown shades, points) (0.5% in ethanol): ++ (very great (>99.9 probability))
CCOC(=O)C=CC(=O)c1ccc(OC)c(OC)c1O [Example 8, 4-(3',4'-Dimethoxy-2'-hydroxy-phenyl)-4-oxo-but-2-enoic acid ethyl ester] |  |  | Evaluation Method 2 (difference in points between right and left sides) (0.5% in ethanol): ++ (very great (>99.9 probability)); Evaluation Method 3 (difference in intensity of brown shades, points) (0.5% in ethanol): ++ (very great (>99.9 probability))
CCOC(=O)C=CC(=O)c1ccc(NC(C)=O)cc1 [Example 9, 4-(4'-Acetylamino-phenyl)-4-oxo-but-2-enoic acid ethyl ester] | ++ (very great (>99.9 probability)) | ++ (very great (>99.9 probability)) | 
CCOC(=O)C=CC(=O)c1ccc(Cl)cc1Cl [Example 10, 4-(2',4'-Dichloro-phenyl)-4-oxo-but-2-enoic acid ethyl ester] | ++ (very great (>99.9 probability)) | ++ (very great (>99.9 probability)) | 
